# Measured values published in patent publication US20200339953A1, “HEMATOPOIETIC STEM AND PROGENITOR CELL THERAPY” (priority 2010, published 2020).
# For at least one compound, name, drawing or mass did not settle the structure.
# Tested on: Murine whole bone marrow (WBM) cells
# Experiment: Colony forming Unit Spleen at day 12 (CFU-S12) assay
# Assay type: in vivo, C57Bl/6 mice
# Description: Colony forming Unit Spleen at day 12 (CFU-S12) assays were performed as described in North et al., Nature. 2007 Jun. 21; 447(7147):1007-11. […] After treatment, the cells were washed by centrifugation and resuspended in PBS for tail-vein injection into C57Bl/6 recipients (2×5/treatment) that had been previously lethally irradiated at 10.5Gy. 50,000 cells were injected per recipient. […]
structure (smiles),measurement,setting,value
"CCCCC(C)(C)[C@H](O)/C=C/[C@H]1[C@H](O)CC(=O)[C@@H]1C/C=C\CCCC(=O)O [16,16-dimethyl PGE2]",CFU-S12 number,"10 μM, 4° C. for 1 hour",8.51.3 colonies
same,CFU-S12 number,"10 μM, 37° C. for 2 hours",11.51.4 colonies
same,CFU-S12 number,"4° C., 2 hours",8.41.0 colonies
